About 22,000 (6.9%) of roughly 320,000 compounds were called active. This list was built around the results that the source calls inconclusive (neither active nor inactive); the mix of calls is not that of the screen. The call rests on the fitted dose curve; in most records, active means well fitted inhibition curve with a large enough effect; inconclusive means small, poorly fitted or top-dose-only effect, or another doubt; inactive means no such curve, though single readings can be large or run the other way. Potencies beside an inconclusive call are fits to weak or partial responses and may not hold up.
Test: Primary qHTS for delayed death inhibitors of the malarial parasite plastid, 96 hour incubation
Conditions: P. falciparum luciferase reporter growth; series mostly up to 28.7 µM; activity change, negative = inhibition: at the top concentration
Method in brief: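 Compounds incubated with erythrocytes infected by luciferase-expressing P. falciparum (2% hematocrit, 0.05% parasitemia final) for 96 hours, 37 C in 5% CO2. Growth inhibition scored as decreased luciferase luminescence.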
For `Nc1c(S(=O)(=O)c2ccccc2)c2nc3ccccc3nc2n1C1CC1`, the Potency was inconclusive: 5.22 µM [inhibitor, partial curve, poor fit]. In the case of `CCn1c(C(C)NC(C)=O)nc2ccccc21` (centres undefined), the Potency is reported as inconclusive: 16.5 µM [inhibitor, single point]. In the case of `CC1Nc2ncnc(N3CCc4ccccc4C3)c2N(Cc2ccc(Cl)cc2)C1=O` (centres undefined), the Potency is reported as active: 5.22 µM. With `CCCOc1ccc(N2C(=O)CC(NCCc3ccc(S(N)(=O)=O)cc3)C2=O)cc1` (centres undefined) the Potency was inconclusive: 16.5 µM [inhibitor, partial curve, poor fit]. With `O=C(O)/C=C/C(=O)Nc1ccc(Oc2ccc(NC(=O)/C=C/C(=O)O)cc2)cc1` the Potency was inconclusive: 1.47 µM [inhibitor, partial curve]. With `COc1cccc(-c2nc(CS(=O)(=O)CC(=O)NCCc3ccc(OC)c(OC)c3)c(C)o2)c1` the “activity change, negative = inhibition” value was inactive: 20.7%. For `Oc1c(C=Nc2ccc(Cl)cn2)sc2ccccc12`, the “activity change, negative = inhibition” value was inactive: 12.1%. For `COc1cc(/C=C/c2ccc3cccc(O)c3n2)cc(Br)c1OC`, the Potency was inconclusive: 5.22 µM [inhibitor, partial curve]. For `CN(NC(=O)c1cccc(Cl)c1)c1nc(-c2ccccc2)nnc1C(F)(F)F`, the Potency was inconclusive: 0.165 µM [inhibitor, full curve, poor fit]. For `CCC(Cc1ccccc1)NC(=O)/C=C/c1ccco1` (centres undefined), the “activity change, negative = inhibition” value was inactive: -2.61%. For `CC(=O)n1cc([C@@H]2C=C(C(=O)NCc3ccccc3)O[C@H](OCCCCO)C2)c2ccccc21`, the Potency was inconclusive: 1.85 µM [inhibitor, full curve]. With `CC(=O)Nc1ccc(S(=O)(=O)Nc2nc(-c3ccc(C(C)(C)C)cc3)cs2)cc1` the Potency was active: 1.65 µM. For `COc1ccc(CN2CCNC(=O)C2CC(=O)N(C)CCC2CCOCC2)c(OC)c1` (centres undefined), the Potency was inconclusive: 9.28 µM [inhibitor, single point]. With `CC1(C)Cc2c(cnn2-c2cccc(F)c2)C(NC(=O)C2CCOCC2)C1` (centres undefined) the Potency was inconclusive: 14.7 µM [inhibitor, partial curve, poor fit]. With `O=c1[nH]c(C2CCN(S(=O)(=O)c3ccc4c(c3)OCCO4)CC2)nc2c1nnn2Cc1ccccc1F` the Potency was active: 13.1 µM. For `CCc1cc2cc3c(cc2nc1SCC(=O)OC(C)C)OCO3`, the “activity change, negative = inhibition” value was inactive: -6.49%. For `CC(C)(C)C(=O)NC1CC2CCCC(C1)N2C(=O)Nc1ccccc1` (centres undefined), the Potency was inconclusive: 18.5 µM [inhibitor, single point]. With `CCN(CC(=O)Nc1c(F)cccc1F)C(=O)Cn1c(=O)cnc2ccccc21` the “activity change, negative = inhibition” value was inactive: -4.63%. In the case of `O=C(Nc1ccccc1Cl)NC1(C(=O)NCCCN2CCOCC2)CCCCC1`, the Potency is reported as inconclusive: 13.1 µM [inhibitor, single point]. With `CCCCn1c(N)c(N(CC(C)C)C(=O)c2cc(-c3ccc(F)cc3)nc3ccccc23)c(=O)[nH]c1=O` the Potency was inconclusive: 5.22 µM [inhibitor, partial curve]. In the case of `CC(C)CN(C(=O)COC(=O)CCN1C(=O)c2ccccc2C1=O)C1CCS(=O)(=O)C1` (centres undefined), the Potency is reported as inconclusive: 18.5 µM [inhibitor, single point]. In the case of `Cc1onc(-c2c(F)cccc2Cl)c1C(=O)OCC(=O)c1c(N)n(C)c(=O)n(C)c1=O`, the Potency is reported as inconclusive: 18.5 µM [inhibitor, single point]. For `Cc1cc(C)n2cc(CSc3ccccn3)nc2n1`, the “activity change, negative = inhibition” value was inactive: -11.5%. With `COCCNC(=O)CN1c2ccccc2CC1C` (centres undefined) the Potency was inconclusive: 11.7 µM [inhibitor, single point]. With `COc1cccc(CC(=O)N(C)C2CCCN(Cc3ccccc3F)C2)c1` (centres undefined) the Potency was inconclusive: 7.38 µM [inhibitor, partial curve, poor fit]. In the case of `O=C(CN(C(=O)c1ccccc1Cl)N1C(=O)C2C3C=CC(C3)C2C1=O)c1cccs1` (centres undefined), the Potency is reported as inconclusive: 10.4 µM [inhibitor, single point]. In the case of `CC(=NCCCn1ccnc1)c1c(-c2ccccc2)[nH]n(-c2nc3ccccc3s2)c1=O`, the Potency is reported as inconclusive: 13.1 µM [inhibitor, partial curve, poor fit]. With `Cc1cc2c(cc1C)CSC(c1ccc3ccccc3c1O)SC2` the Potency was inconclusive: 4.15 µM [inhibitor, single point]. For `Nc1c(CO)nnn1-c1ccccc1`, the “activity change, negative = inhibition” value was inactive: -22.9%. In the case of `CCc1ccc(C(=O)Nc2cc(C)on2)o1`, the “activity change, negative = inhibition” value is reported as inactive: 36.4%. With `Cc1ccc(NC(=O)COC(=O)Cn2nc(C)c([N+](=O)[O-])c2C)c([N+](=O)[O-])c1` the “activity change, negative = inhibition” value was inactive: 50%. For `Cc1c(C(=O)N2CCCCCC2)nnn1-c1nonc1N`, the Potency was inconclusive: 18.5 µM [inhibitor, single point]. For `CCOC(=O)CSc1nc2c(c(=O)[nH]c(=O)n2C)n1CCCc1ccccc1`, the “activity change, negative = inhibition” value was inactive: 24.5%. In the case of `Cc1no[n+]([O-])c1COc1ccc(/C=C2\NC(=S)NC2=O)cc1`, the Potency is reported as inconclusive: 18.5 µM [inhibitor, single point]. For `O=S(=O)(Cc1ccccc1)Nc1ccc(Br)cn1`, the Potency was inconclusive: 18.5 µM [inhibitor, single point]. For `CC(=O)N1CCc2c(sc(NC(=O)C3CCCN3S(=O)(=O)c3cccs3)c2C(N)=O)C1` (centres undefined), the Potency was inconclusive: 7.38 µM [inhibitor, single point]. In the case of `CCOC(=O)c1c(C)n(C)c2ccc(OCC(O)CN(CC)CC)cc12` (centres undefined), the Potency is reported as active: 5.86 µM. For `COc1ccc(CC(=O)Nc2cccc(-c3ccc4nnc(C)n4n3)c2)cc1`, the Potency was inconclusive: 18.5 µM [inhibitor, single point]. In the case of `Cc1cccc(CSC2=NCCN2S(=O)(=O)c2ccc(F)cc2)c1`, the Potency is reported as inconclusive: 13.1 µM [inhibitor, single point]. With `COC(=O)c1ccc(Nc2ccc3nonc3c2[N+](=O)[O-])cc1` the “activity change, negative = inhibition” value was inactive: 13.5%. In the case of `O=C(NCc1ccco1)c1cc([N+](=O)[O-])ccc1N1CCOCC1`, the Potency is reported as inconclusive: 0.928 µM [inhibitor, full curve, poor fit]. For `CC1C(C#N)=C(SCC(N)=O)NC2=C1C(=O)CC(C)(C)C2` (centres undefined), the Potency was inconclusive: 18.5 µM [inhibitor, single point]. For `Cc1ccc(OCCn2c(NC(=O)c3ccco3)nc3ccccc32)cc1`, the Potency was inconclusive: 11.7 µM [inhibitor, partial curve, poor fit]. For `O=C(c1cccs1)c1cn(Cc2ccccc2Cl)c2ccccc12`, the Potency was inconclusive: 18.5 µM [inhibitor, single point]. For `O=C(Oc1ccc2ccc(=O)oc2c1)C1CCCCC1`, the “activity change, negative = inhibition” value was inactive: 181%. For `CN(C)c1ccc(CC(=O)c2nc3ccccc3s2)cc1`, the Potency was active: 3.29 µM. With `COc1ccccc1/C=N/NC(=O)c1cccc(NC(=O)c2ccccc2C)c1` the Potency was inconclusive: 1.04 µM [inhibitor, partial curve, poor fit]. In the case of `COc1ccc(C(=O)c2oc3ccccc3c2NC(C)=O)cc1`, the Potency is reported as inconclusive: 11.7 µM [inhibitor, single point]. With `NC1=NC(=O)C2(COC(c3cccnc3)OC2)S1` (centres undefined) the Potency was inconclusive: 10.4 µM [inhibitor, partial curve, poor fit]. With `Cc1ccccc1Cn1ccc(NC(=O)c2nc3ncccn3n2)n1` the “activity change, negative = inhibition” value was inactive: 20.7%. In the case of `COc1ccc(NC(=O)COC(=O)c2cc(C)oc2C)cc1OC`, the “activity change, negative = inhibition” value is reported as inactive: -3.47%. For `COc1ccc(N2CCN(C(=O)CN(C)S(=O)(=O)c3cccs3)CC2)cc1`, the “activity change, negative = inhibition” value was inactive: -6.76%. For `O=C(Nc1csc([N+](=O)[O-])c1)Nc1c(Cl)cccc1Cl`, the “activity change, negative = inhibition” value was inactive: -18.1%. In the case of `CC(C)CN1CCC(=O)N([C@H](CO)Cc2ccccc2)CC1`, the “activity change, negative = inhibition” value is reported as inactive: 39.1%. For `C[C@H]1OC[C@@H](C[N+](C)(C)C)O1`, the Potency was inconclusive: 4.65 µM [inhibitor, partial curve, poor fit]. With `CN(C)c1ccc(N2C(=NC(=O)CCc3ccccc3)SC3CS(=O)(=O)CC32)cc1` (centres undefined) the Potency was active: 11.7 µM. For `Cc1ccc(N(CC(=O)NCC2CCCO2)C(=O)Cn2nnc(-c3cccs3)n2)cc1` (centres undefined), the Potency was inconclusive: 9.28 µM [inhibitor, single point]. For `CC(NC(=O)c1cccc(S(=O)(=O)N2CCN(Cc3ccccc3)CC2)c1)c1ccc(Cl)cc1` (centres undefined), the “activity change, negative = inhibition” value was inactive: 0%. With `COc1ccc2c(c1OC)C(=O)N1c3ccccc3N=C(c3ccc([N+](=O)[O-])cc3)CC21` (centres undefined) the “activity change, negative = inhibition” value was inactive: -0.466%. For `COc1ccc(C(=O)OCC[N+]2(C)CCCCC2)cc1`, the “activity change, negative = inhibition” value was inactive: 6.77%. In the case of `O=C(C[C@H]1C(=O)N(c2ccc(F)c(F)c2)C[C@@H]1Cc1ccccc1)Nc1ccccc1`, the Potency is reported as inconclusive: 14.7 µM [inhibitor, single point]. With `CC(C)CNC(=O)/C=C/C=C/CCCC/C=C/c1ccc2c(c1)OCO2` the Potency was inconclusive: 3.29 µM [inhibitor, partial curve]. For `Cc1cccn2c(CNC3CCCc4ccccc43)c(C(=O)N3CCOCC3)nc12` (centres undefined), the Potency was inconclusive: 5.22 µM [inhibitor, partial curve, poor fit]. With `Cc1cc(C)nc(NC2=NCCN2C(=S)Nc2c(C)cccc2C)n1` the Potency was inconclusive: 9.28 µM [inhibitor, partial curve]. With `COc1cc(-c2n[nH]c(=S)n2-c2cc(C(F)(F)F)ccc2Cl)cc(OC)c1OC` the Potency was inconclusive: 1.17 µM [inhibitor, full curve, poor fit]. With `Cc1oc2ccc(OCC(N)=O)cc2c1C(=O)OC(C)C` the Potency was inconclusive: 18.5 µM [inhibitor, single point]. With `CCN1CCN(C(=O)C2CCN(c3nnc(-n4c(C)ccc4C)s3)CC2)CC1` the Potency was inconclusive: 14.7 µM [inhibitor, partial curve, poor fit]. With `Cc1ccc([N+](=O)[O-])c(C(=O)N/N=C/c2cccs2)c1` the Potency was inconclusive: 10.4 µM [inhibitor, single point]. With `CC1CCCCC12NC(=O)N(CC(=O)Nc1sc3c(c1C(N)=O)CCC3)C2=O` (centres undefined) the Potency was active: 10.4 µM.
On the % scale 0 is the no-effect control and ±100 the full control effect; potency means the concentration at half of the fitted maximal effect.
